Experimental data reported in patent publication US20160046678A1 (ZYNGENIA, published 2016).
Results are given in words; binding and its absence hold for the method and conditions named. Some entries that bind do so weakly or less than the wild type.

The binders below were run against ErbB2 (UniProt P04626) (assay: MRD identification, Example 48).

Binder	binding
WSGWCEGELQWYFCSGHL [EGB596]	binds
WSGWCEGEHKWSFCSGHL [EGB597]	binds
WSGWCESDKGWYQCRGTI [EGB598]	binds
YEEHCRLFPADWICSLLQ [EGB599]	binds
WSGWCETPGHWYQCRGSI [EGB600]	binds
ADSWCHTLYWNLRHCEIQE [EGB601]	binds
WSGWCNSGGGWHQCRGTI [EGB602]	binds
WSGWCLTDNKWHSCIGTI [EGB603]	binds
WSGWCETDRGWHDCHGTI [EGB604]	binds
WSGWCETKDHWHACNGII [EGB605]	binds
WSGWCEGELQWYFCSGKI [EGB606]	binds
PESWCHTLYWNLQHCLSQE [EGB607]	binds
WSGWCETSGGWHYCKGTI [EGB609]	binds
WSGWCETDQGWHHCWGTI [EGB610]	binds
WSGWCETKFGWNYCKGSI [EGB611]	binds
WSGWCFATSGWHSCRGTA [EGB612]	binds
WSGWCETGNGWDRCWGNI [EGB613]	binds
WSGWCEGQLQWFFCSGQI [EGB614]	binds
WSGWCERSWGWEQCRGTI [EGB615]	binds
WSGWCEYEEKWAFCSGYI [EGB616]	binds
WSGYCEGELQWYFCTGHL [EGB617]	binds
WSGWCETSVGWHKCSGTI [EGB618]	binds
WSGWCRIETGWDFCSGTI [EGB619]	binds
WSGWCETSKGWHFCSGTI [EGB620]	binds

Binder	binding
WSGWCESSHGWHGCKGII [EGB621]	binds
WSGWCEYNGYWDYCTGTI [EGB622]	binds
WSGWCETGKYWHYCSGTI [EGB623]	binds
WSGWCEGKHQWYFCSGNL [EGB624]	binds
WSGWCETELGWHQCRGTI [EGB625]	binds
WSGWCEGQTKWYFCSGQI [EGB626]	binds
WSGWCLFDSKWDYCQGNI [EGB627]	binds
ANSWCHTLYWDLMYCVWQE [EGB628]	binds
WSGWCQTGMRWHQCYGTI [EGB629]	binds
WSGWCESNGTWHGCKGTI [EGB630]	binds
WSGWCEGKHGWYSCRGTI [EGB631]	binds
WSGWCETLSGWHQCHGVI [EGB632]	binds
WSGWCEGKEKWHHCNGSI [EGB633]	binds
WSGWCETSEGWHSCYGSI [EGB634]	binds
WSGWCLNELGWQQCFGTI [EGB635]	binds
WSGWCERVSGWNYCHGTI [EGB636]	binds
WSGWCYAPTGWHHCVGTI [EGB638]	binds
WSGWCETGTGWYHCGGTI [EGB639]	binds
PDSWCHTLYWHLQHCLSQE [EGB640]	binds
WSGWCEYELRWDFCSGHI [EGB641]	binds
WSGWCETVNGWHQCTGTI [EGB642]	binds
WSGWCLTKNSWDFCSGTI [EGB643]	binds
WSGWCLTNGVWHGCRGII [EGB644]	binds
WSGFCLTEESWHHCTGPI [EGB645]	binds

Binder	binding
WSGWCEAIDMWYQCHGPI [EGB646]	binds
WSGWCFTGDLWHACTGII [EGB647]	binds
WSGWCEGELQWYYCSGKI [EGB648]	binds
WSGWCEGEFQWYFCSGQF [EGB649]	binds
WSGWCETNGKWDFCQGTI [EGB650]	binds
WSGWCETPVGWEQCTGTI [EGB651]	binds
WSGWCEGKLHWYFCSGHM [EGB652]	binds
WSGWCEGALGWSSCSGHG [EGB653]	binds
YEEHCALFPTDWICTLH [EGB654]	binds
WSGWCEGIGAWHFCKGII [EGB655]	binds
WSGWCESNDGWYQCKGDI [EGB656]	binds
WSGWCETLNGWYGCHGTM [EGB657]	binds
WSGWCENNDGWHHCHGSI [EGB658]	binds
WSGYCETGRGWHMCQGTI [EGB659]	binds
WSGWCETVTGWDYCNGKI [EGB660]	binds
WSGWCETDEGWRQCSGTI [EGB661]	binds
WSGWCMTLDKWHQCYGTI [EGB662]	binds
WSGWCETNNGWYACWGMI [EGB663]	binds
WSGWCFNEAGWGHCYGLP [EGB664]	binds
WSGWCETDRGWHECHGTI [EGB665]	binds
WSGWCETKFGWSYCKGTI [EGB666]	binds
WSGWCEGEDGWHSCRGTI [EGB668]	binds
